Results as given in patent US10206937B2, “Boronic acid derivatives and therapeutic uses thereof” (Qpex Biopharma, Inc., priority 2014, dated 2019).
Further values from the same series stand in other lists.

Tested on: strains of Enterobacteriaceae producing various carbapenemases (class A, D and B; 169 strains)
Assay: Meropenem or tebipenem potentiation by Compounds 97 or 62 (MIC)
Assay type: cell-based
Description: The largest panel of clinical isolates expressing class A, D and B carbapenemases alone or in combination with other beta-lactamases (169 strains) was used to evaluate carbapenem potentiation activity of Compounds 97 and 62. MIC for meropenem and tebipenem of these strains were determined either alone or in the presence of Compounds 97 or 62, respectively, at a fixed concentration of 8 μg/ml in the growth media.

Structure (SMILES): C[C@@H](O)[C@H]1C(=O)N2C(C(=O)O)=C(SC3CN(C4=NCCS4)C3)[C@H](C)[C@H]12 [T]
- Tebipenem MIC alone (T) (CF1012 Citrobacter freundii KPC-2): Z (MIC of greater than 10 μg/mL)
- Tebipenem MIC alone (T) (CF1021 Citrobacter freundii CMY-type, VIM-1): Y (MIC of 1 μg/mL to 10 μg/mL)
- Tebipenem MIC alone (T) (EA1019 Enterobacter aerogenes SHV-5, VIM-1): Z (MIC of greater than 10 μg/mL)
- Tebipenem MIC alone (T) (EC1007 Escherichia coli KPC-3): Y (MIC of 1 μg/mL to 10 μg/mL)
- Tebipenem MIC alone (T) (EC1064 Escherichia coli NDM-1, CMY-6, CTX-M-15): Z (MIC of greater than 10 μg/mL)
- Tebipenem MIC alone (T) (EC1065 Escherichai coli IMP-1 CMY-2): Y (MIC of 1 μg/mL to 10 μg/mL)
- Tebipenem MIC alone (T) (EC1068 Escherichia coli VIM-1): Y (MIC of 1 μg/mL to 10 μg/mL)
- Tebipenem MIC alone (T) (EC1073 Escherichia coli OXA-48): Z (MIC of greater than 10 μg/mL)
- Tebipenem MIC alone (T) (EC1074 Escherichia coli KPC-2, SHV-12): Z (MIC of greater than 10 μg/mL)
- Tebipenem MIC alone (T) (EC1076 Escherichia coli NDM-1 CMY-2): Z (MIC of greater than 10 μg/mL)
- Tebipenem MIC alone (T) (ECL1004 Enterobacter cloacae NMC-A): Z (MIC of greater than 10 μg/mL)
- Tebipenem MIC alone (T) (ECL1026 Enterobacter cloacae KPC-2, TEM-1): Z (MIC of greater than 10 μg/mL)
- Tebipenem MIC alone (T) (ECL1036 Enterobacter cloacae KPC-3, TEM-1): Z (MIC of greater than 10 μg/mL)
- Tebipenem MIC alone (T) (ECL1058 Enterobacter cloacae KPC-3, SHV-11, TEM-1): Z (MIC of greater than 10 μg/mL)
- Tebipenem MIC alone (T) (ECL1059 Enterobacter cloacae KPC-3, SHV-12, TEM-1): Y (MIC of 1 μg/mL to 10 μg/mL)
- Tebipenem MIC alone (T) (ECL1061 Enterobacter cloacae KPC-3, Hyper AmpC expression): Z (MIC of greater than 10 μg/mL)
- Tebipenem MIC alone (T) (ECL1079 Enterobacter cloacae KPC TEM): Z (MIC of greater than 10 μg/mL)
- Tebipenem MIC alone (T) (ECL1082 Enterobacter cloacae VIM-1): Y (MIC of 1 μg/mL to 10 μg/mL)
- Tebipenem MIC alone (T) (KP1001 Klebsiella pneumoniae KPC TEM SHV): Z (MIC of greater than 10 μg/mL)
- Tebipenem MIC alone (T) (KP1002 Klebsiella pneumoniae KPC TEM SHV): Z (MIC of greater than 10 μg/mL)
- Tebipenem MIC alone (T) (KP1003 Klebsiella pneumoniae KPC TEM SHV): Z (MIC of greater than 10 μg/mL)
- Tebipenem MIC alone (T) (KP1004 Klebsiella pneumoniae KPC-2, TEM-1, SHV-11): Z (MIC of greater than 10 μg/mL)
- Tebipenem MIC alone (T) (KP1008 Klebsiella pneumoniae KPC-2): Z (MIC of greater than 10 μg/mL)
- Tebipenem MIC alone (T) (KP1014 Klebsiella pneumoniae Vim-1, TEM, SHV): Z (MIC of greater than 10 μg/mL)
- Tebipenem MIC alone (T) (KP1015 Klebsiella pneumoniae VIM-1, SHV): Z (MIC of greater than 10 μg/mL)
- Tebipenem MIC alone (T) (KP1082 Klebsiella pneumoniae KPC-2, SHV-1): Z (MIC of greater than 10 μg/mL)
- Tebipenem MIC alone (T) (KP1083 Klebsiella pneumoniae KPC-3, SHV-1, TEM-1): Z (MIC of greater than 10 μg/mL)
- Tebipenem MIC alone (T) (KP1084 Klebsiella pneumoniae KPC-3, SHV-11, TEM-1): Z (MIC of greater than 10 μg/mL)
- Tebipenem MIC alone (T) (KP1086 Klebsiella pneumoniae TEM, SHV, CTX-M-15, OXA-48): Z (MIC of greater than 10 μg/mL)
- Tebipenem MIC alone (T) (KP1087 Klebsiella pneumoniae KPC-2, CTX-M-15, SHV-11, TEM-1): Z (MIC of greater than 10 μg/mL)
- Tebipenem MIC alone (T) (KP1088 Klebsiella pneumoniae KPC-3, SHV-11, TEM-1): Z (MIC of greater than 10 μg/mL)
- Tebipenem MIC alone (T) (KP1089 Klebsiella pneumoniae TEM, SHV, CTX-M-15, OXA-181): Y (MIC of 1 μg/mL to 10 μg/mL)
- Tebipenem MIC alone (T) (KP1092 Klebsiella pneumoniae SHV-11, SHV-12, TEM-1, KPC): Z (MIC of greater than 10 μg/mL)
- Tebipenem MIC alone (T) (KP1093 Klebsiella pneumoniae KPC-3 TEM SHV-11): Z (MIC of greater than 10 μg/mL)
- Tebipenem MIC alone (T) (KP1094 Klebsiella pneumoniae KPC-2 TEM-1 LEN-17): Z (MIC of greater than 10 μg/mL)
- Tebipenem MIC alone (T) (KP1095 Klebsiella pneumoniae KPC-2 TEM-1 SHV-1): Z (MIC of greater than 10 μg/mL)
- Tebipenem MIC alone (T) (KP1096 Klebsiella pneumoniae KPC-2 TEM-181 SHV-11): Z (MIC of greater than 10 μg/mL)
- Tebipenem MIC alone (T) (KP1097 Klebsiella pneumoniae IMP-1 SHV): Y (MIC of 1 μg/mL to 10 μg/mL)
- Tebipenem MIC alone (T) (KP1098 Klebsiella pneumoniae IMP-26 TEM SHV): Z (MIC of greater than 10 μg/mL)
- Tebipenem MIC alone (T) (KP1099 Klebsiella pneumoniae KPC-2 SHV): Z (MIC of greater than 10 μg/mL)
- Tebipenem MIC alone (T) (KP1100 Klebsiella pneumoniae KPC-3 TEM SHV): Z (MIC of greater than 10 μg/mL)
- Tebipenem MIC alone (T) (KP1101 Klebsiella pneumoniae KPC-2 TEM SHV): Z (MIC of greater than 10 μg/mL)
- Tebipenem MIC alone (T) (KP1102 Klebsiella pneumoniae KPC-3 TEM SHV): Z (MIC of greater than 10 μg/mL)
- Tebipenem MIC alone (T) (KP1104 Klebsiella pneumoniae KPC, TEM): Z (MIC of greater than 10 μg/mL)
- Tebipenem MIC alone (T) (KP1105 Klebsiella pneumoniae KPC, SHV, TEM): Z (MIC of greater than 10 μg/mL)
- Tebipenem MIC alone (T) (KP1237 Klebsiella pneumoniae OXA-48 TEM SHV CTX-M-15): Z (MIC of greater than 10 μg/mL)
- Tebipenem MIC alone (T) (KP1239 Klebsiella pneumoniae OXA-48 SHV): Z (MIC of greater than 10 μg/mL)
- Tebipenem MIC alone (T) (KP1240 Klebsiella pneumoniae OXA-181 SHV CTX-M-15): Y (MIC of 1 μg/mL to 10 μg/mL)
- Tebipenem MIC alone (T) (KP1241 Klebsiella pneumoniae OXA-181 TEM SHV CTX-M-15): Z (MIC of greater than 10 μg/mL)
- Tebipenem MIC alone (T) (KP1242 Klebsiella pneumoniae KPC-2, SHV-12 TEM): Z (MIC of greater than 10 μg/mL)
- Tebipenem MIC alone (T) (KP1243 Klebsiella pneumoniae KPC-2 SHV VIM-1): Z (MIC of greater than 10 μg/mL)
- Tebipenem MIC alone (T) (KP1244 Klebsiella pneumoniae KPC SHV TEM + 1.9 kb): Z (MIC of greater than 10 μg/mL)
- Tebipenem MIC alone (T) (KP1245 Klebsiella pneumoniae KPC SHV TEM + 1.9 kb): Z (MIC of greater than 10 μg/mL)
- Tebipenem MIC alone (T) (KP1246 Klebsiella pneumoniae KPC SHV TEM + 1.9 kb): Z (MIC of greater than 10 μg/mL)
- Tebipenem MIC alone (T) (KP1247 Klebsiella pneumoniae IMP TEM SHV): Z (MIC of greater than 10 μg/mL)
- Tebipenem MIC alone (T) (KP1248 Klebsiella pneumoniae OXA-232 SHV CTX-M-15): Z (MIC of greater than 10 μg/mL)
- Tebipenem MIC alone (T) (KP1249 Klebsiella pneumoniae OXA-232 SHV): Z (MIC of greater than 10 μg/mL)
- Tebipenem MIC alone (T) (KP1250 Klebsiella pneumoniae NDM-1 TEM SHV SMY-2 CTX-M-15): Z (MIC of greater than 10 μg/mL)
- Tebipenem MIC alone (T) (KP1252 Klebsiella pneumoniae KPC TEM SHV): Z (MIC of greater than 10 μg/mL)
- Tebipenem MIC alone (T) (KPM1123 Klebsiella pneumoniae KPC-2 TEM SHV): Z (MIC of greater than 10 μg/mL)
- Tebipenem MIC alone (T) (KPM1202 Klebsiella pneumoniae KPC SHV TEM): Z (MIC of greater than 10 μg/mL)
- Tebipenem MIC alone (T) (KPM1203 Klebsiella pneumoniae KPC SHV TEM): Z (MIC of greater than 10 μg/mL)
- Tebipenem MIC alone (T) (KPM1344 Klebsiella pneumoniae VIM-1): Y (MIC of 1 μg/mL to 10 μg/mL)
- Tebipenem MIC alone (T) (KPM1345 Klebsiella pneumoniae VIM-1 SHV): Y (MIC of 1 μg/mL to 10 μg/mL)
- Tebipenem MIC alone (T) (KPM1346 Klebsiella pneumoniae NDM-1 TEM SHV CTX-M-15 CMY): Z (MIC of greater than 10 μg/mL)
- Tebipenem MIC alone (T) (KPM1347 Klebsiella pneumoniae NDM-1 SHV CTX-M-15): Z (MIC of greater than 10 μg/mL)
- Tebipenem MIC alone (T) (KX1017 Klebsiella oxytoca KPC-2, OXA-2, SHV-30): Z (MIC of greater than 10 μg/mL)
- Tebipenem MIC alone (T) (KX1018 Klebsiella oxytoca KPC-2, SHV-40, OXY-1): Z (MIC of greater than 10 μg/mL)
- Tebipenem MIC alone (T) (KX1019 Klebsiella oxytoca KPC-2, OXA-2): Z (MIC of greater than 10 μg/mL)
